{"source": "patent US20250186538A1", "about": "(The General Hospital Corporation, priority 2022, published 2025)", "assay": "peptide made by a vendor (peptide synthesis; HBTU/DIPEA (solution-phase amidation))", "settings": "whole synthesis", "note": "Where a sequence shows no end group, the ends are not given.", "data": [{"sequence": "GGNGDFEEIPEEYL", "values": [{"measurement": "final purity (method not given)", "result": ">98", "unit": "%"}]}]}
